From PMC9278091, “ATP‐independent molecular chaperone activity generated under reducing conditions” (Protein Science : A Publication of the Protein Society, 2022)
No constants are given. Whether binding was seen depends on the method and setting. Some results given as binding are weak or reduced against the parent protein; the word gives no strength.

Biological target: NT*-Bri2 BRICHOScys mutant C223S (NT*-Bri2 BRICHOScys 164-164 dimer) (human) (UniProt Q9Y287)
Assay: non-reducing SDS-PAGE and Western blot; dimer fractions of Bri2 BRICHOScys mutants with or without NT* mixed 1:1 at 10 μM final protein, 20 mM phosphate buffer pH 8, 0.2 mM EDTA, 0.02% NaN3, 2.5x thrombin inhibitor, 37°C overnight; mixed disulfide band; both purified

binding: binds weakly
Substance: Bri2 BRICHOScys mutant C223S without NT* tag (Cys164-Cys164 dimer) (from UniProt Q9Y287 113-231) (domain or fragment)
